Source: the supplement of paper PMC8288183
The list shows a part of the results. Most values come without repeats; read them as rough.

Biological target: T1, NSUN6 (UniProt Q8TEA1)
T1 sequence: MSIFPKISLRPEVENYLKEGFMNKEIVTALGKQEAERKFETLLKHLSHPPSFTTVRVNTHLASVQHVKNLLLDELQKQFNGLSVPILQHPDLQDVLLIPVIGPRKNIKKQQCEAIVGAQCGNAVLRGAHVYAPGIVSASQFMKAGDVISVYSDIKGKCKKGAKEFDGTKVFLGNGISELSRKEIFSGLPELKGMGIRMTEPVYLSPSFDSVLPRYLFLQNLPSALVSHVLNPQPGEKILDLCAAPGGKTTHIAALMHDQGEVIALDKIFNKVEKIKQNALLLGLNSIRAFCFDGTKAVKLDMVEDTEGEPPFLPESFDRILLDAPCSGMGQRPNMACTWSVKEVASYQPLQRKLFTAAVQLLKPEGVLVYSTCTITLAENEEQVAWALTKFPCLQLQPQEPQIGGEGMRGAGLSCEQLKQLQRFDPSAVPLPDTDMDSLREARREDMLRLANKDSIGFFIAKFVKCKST
Test: m5C methylation level at the target C (C/(C+U) bisulfite reads) (fraction); higher = more methylation by NSUN6; extreme values may be limits of the assay
Settings: HEK293T (wild-type)
Method: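 High-throughput mutagenesis reporter. About 140 bp oligo-pool variants of four natural Type II m5C substrates (substrate #1 chr15:91425541; #2 RAB15 3'UTR chr14:65413377; #3 SULT2A1 5'UTR chr19:48389569; #4 NAAA CDS chr4:76857361) were cloned as 3'UTR elements of psiCHECK-2 luciferase and transfected into wild-type HEK293T cells. Total RNA was taken 48 h later and m5C level was measured by targeted bisulfite sequencing as C/(C+U) reads at the m5C site (one library).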

[1] = parent substrate: substrate #1 (main figure)

Row | Sequence | m5C methylation level at the target C [1] | m5C methylation level at the target C (parent substrate: substrate #2) | m5C methylation level at the target C (parent substrate: substrate #3) | m5C methylation level at the target C (parent substrate: substrate #4)
1 | GCACAA | 0.00791 | 0 | 0.00106 | 0.00101
2 | CCACCG | 0 | 0.00471 | 0 | 0
3 | CCUCGA | 0.00303 | 0.0108 | 0.0157 | 0.0162
4 | CCCCGG | 0.00235 | 0.000705 | 0.00122 | 0
5 | UCGCAG | 0.00994 | 0.000858 | 0.000824 | 0.00246
6 | UCAGAU | 0 | 0 | 0.00124 | 0.000834
7 | ACCAUA | 0.0065 | 0.00144 | 0 | 0.000821
8 | UCGAAA | 0.00125 | 0.00462 | 0.00151 | 0
9 | GCCCUU | 0.00395 | 0.000949 | 0 | 0.00142
10 | CCAAGG | 0.0021 | 0.000778 | 0.000578 | 0.00367
11 | ACAAUC | 0 | 0 | 0 | 0
12 | UCUAGU | 0.00116 | 0.00139 | 0 | 0.00285
13 | ACUCCU | 0 | 0 | 0 | 0
14 | GCUUUA | 0.000609 | 0.00719 | 0.00252 | 0.00373
15 | GCGAUC | 0.00474 | 0.00245 | 0.000951 | 0.00292
16 | ACCCAU | 0 | 0.00129 | 0.00116 | 0.000665
17 | UCGACC | 0.000952 | 0 | 0.000531 | 0.00204
18 | CCUCCU | 0 | 0.002 | 0.000655 | 0
19 | UCUUGC | 0 | 0.00633 | 0 | 0.00433

Some entries already given, limited to m5C methylation level at the target C (parent substrate: substrate #4):

| Row | Sequence | m5C methylation level at the target C (parent substrate: substrate #4) |
| --- | --- | --- |
| 10 | CCAAGG | 0.00367 |
| 11 | ACAAUC | 0 |
| 12 | UCUAGU | 0.00285 |

The list goes on:

Row | Sequence | m5C methylation level at the target C [1] | m5C methylation level at the target C (parent substrate: substrate #2) | m5C methylation level at the target C (parent substrate: substrate #3) | m5C methylation level at the target C (parent substrate: substrate #4)
20 | CCAUCG | 0.000963 | 0 | 0 | 0.000509
21 | UCUAAG | 0 | 0 | 0.000695 | 0
22 | GCUAAG | 0.000511 | 0 | 0.000409 | 0.00205
23 | ACUGUC | 0 | 0.00295 | 0 | 0
24 | GCCACU | 0.000762 | 0.014 | 0.000864 | 0.000695
25 | GCGCGU | 0 | 0 | 0.00402 | 0.00291
26 | UCGUUG | 0.000926 | 0 | 0.000923 | 0
27 | UCGUGU | 0.000779 | 0 | 0.00992 | 0.00202
28 | UCGGGA | 0.00403 | 0.00124 | 0.00592 | 0.00069
29 | ACUACC | 0.00619 | 0.00316 | 0.00124 | 0.00084
30 | CCCUUA | 0 | 0 | 0.00364 | 0.000794
31 | UCUUUC | 0 | 0.00515 | 0 | 0.00172
32 | GCGUAA | 0.00357 | 0 | 0.00184 | 0.00153
33 | CCUGUA | 0.00238 | 0.00417 | 0.00044 | 0.00105
34 | ACCCCG | 0 | 0.00652 | 0.000961 | 0
35 | ACCCAG | 0 | 0.00822 | 0 | 0
36 | UCAUGA | 0.00193 | 0.00288 | 0 | 0
37 | GCAGGC | 0.000855 | 0 | 0.00271 | 0.00156
